Assay results reported in ChEMBL document CHEMBL4425130, “Macrocyclic Prodrugs of a Selective Nonpeptidic Direct Thrombin Inhibitor Display High Permeability, Efficient Bioconversion but Low Bioavailability” (J Med Chem, 2016).
Converted amounts (≈) assume the structure as drawn.

What was measured:
physchem = settings: octanol/water, pH 7.4
[1] = Solubility of the compound in phosphate buffer at pH 7.4 at 25 degC after 24 hrs by ultraperformance LC/MS/MS method

`COC(=O)NCc1ccc(Cl)cc1CNC(=O)CC1=C(C)CCN(NCc2cccc(C(=O)OC)c2)C1=O` showed a logD at 3 h (physchem) of 2.9 and a solubility at 24 h [1] of 160 µM (≈ 86.9 µg/mL).
